Experimental data taken from the supplement of paper PMC12889115.
This is one part of the list. Values are raw readings; no control value is given beside them.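 In the initial screen, polymyxin B was used at a concentration that permeabilizes Salmonella's outer membrane but not its inner membrane. Maximum growth was set by DMSO wells with or without polymyxin B. Since plates varied, data were ranked per plate, and compounds giving the lowest OD600 advanced as hits.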

System: Salmonella enterica serovar Typhimurium SL1344
Test: bacterial growth OD600 after 18 h with compound and polymyxin B; higher = more bacterial growth (less inhibition)
Conditions: 50 µM, Mueller-Hinton broth

## O=C(CCOc1ccccc1)Nc1ccnn1C1CCN(C(=O)c2cnsn2)CC1
Polymyxin B 1 µg/mL
  bacterial growth OD600: 0.84

## O=C(NCc1ccsc1)c1cc(COc2ccc3c(c2)OCO3)[nH]n1
Polymyxin B 1 µg/mL
  bacterial growth OD600: 0.742

## CCOc1ccccc1N1CCN(Cc2nc(-c3cccc(Cl)c3)no2)CC1
Polymyxin B 1 µg/mL
  bacterial growth OD600: 1.13

## O=C(C1CCCN(Cc2nc(-c3ccc4c(c3)OCO4)no2)C1)N1CCOCC1 (stereo unspecified)
Polymyxin B 1 µg/mL
  bacterial growth OD600: 0.851

## Cn1cc(CN2CCc3onc(-c4ccc(-c5ccccc5)cc4)c3C2)cn1
Polymyxin B 0.75 µg/mL
  bacterial growth OD600: 0.426

## CN(CC1CCCN(CCc2ccccc2F)C1)C(=O)c1cc2ncccn2n1 (stereo unspecified)
Polymyxin B 1 µg/mL
  bacterial growth OD600: 1.1

## C=CCn1cc(CN2CCC(C(=O)Nc3ccc(Oc4cccnc4)cc3)CC2)c(C)n1
Polymyxin B 1 µg/mL
  bacterial growth OD600: 0.839

## O=C(Cc1c[nH]c2ccccc12)NCc1cccnc1N1CCOCC1
Polymyxin B 1 µg/mL
  bacterial growth OD600: 0.867

## CCN(CC)C(=O)CC1(c2ccccc2Cl)CC(=O)N(CCCOC)C1=O (stereo unspecified)
Polymyxin B 0.75 µg/mL
  bacterial growth OD600: 0.776

## O[C@@H]1CN(Cc2cc(F)ccc2-n2cccn2)CC[C@H]1N1CCN(c2ccccn2)CC1
Polymyxin B 1 µg/mL
  bacterial growth OD600: 0.957

## Cc1ccccc1-c1nn(-c2ccc(F)cc2F)cc1CN(C)C1CCOC1 (stereo unspecified)
Polymyxin B 0.75 µg/mL
  bacterial growth OD600: 0.636

## COc1ccccc1CCN1CCCC(CN(C)Cc2cccn2-c2ncccn2)C1 (stereo unspecified)
Polymyxin B 1 µg/mL
  bacterial growth OD600: 0.742

## O=C(Nc1ccc(Oc2cccnc2)cc1)C1CCCCN1Cc1ccc(F)cc1 (stereo unspecified)
Polymyxin B 1 µg/mL
  bacterial growth OD600: 0.829

## COc1ccc(F)c(CNCc2cccnc2N(C)C2CCCCC2)c1
Polymyxin B 1 µg/mL
  bacterial growth OD600: 1.07

## COc1cccc(NC(=O)CCC2CCN(C(=O)C(C)Cn3cccn3)CC2)c1 (stereo unspecified)
Polymyxin B 1 µg/mL
  bacterial growth OD600: 0.899

## CC(C)(C)C(=O)Nc1ccnn1C1CCN(Cc2cc(F)cc(F)c2)CC1
Polymyxin B 0.75 µg/mL
  bacterial growth OD600: 0.881

## Cc1oc(-c2ccc(NC(=O)Cc3ccccc3)cc2)nc1CNC(=O)Cn1nc2ccccc2n1
Polymyxin B 0.75 µg/mL
  bacterial growth OD600: 0.802

## COc1ccc(NC(=O)CCC2CCN(C(=O)c3cccnc3OC)CC2)c(OC)c1
Polymyxin B 1 µg/mL
  bacterial growth OD600: 1.01

## C=CCC(=O)N1CC[C@@H](N2CCN(CCc3ccccc3)CC2)[C@H](O)C1
Polymyxin B 1 µg/mL
  bacterial growth OD600: 0.852

## O=C(NC1CCCN(C2CCCCCC2)C1)c1ccccc1N1CCOCC1 (stereo unspecified)
Polymyxin B 1 µg/mL
  bacterial growth OD600: 1.12

## CCOc1cc(CN2Cc3cc(OC)ccc3OC(CC)C2)ccc1O (stereo unspecified)
Polymyxin B 0.75 µg/mL
  bacterial growth OD600: 0.779

## CCc1nc2cc(C(=O)N(CC3CC3)CC3CCCO3)cc(NC(=O)c3ccccc3OC)c2n1C (stereo unspecified)
Polymyxin B 0.75 µg/mL
  bacterial growth OD600: 0.87

## CN(C(=O)c1ccccn1)C(Cc1ccccc1)C1CCN(C(=O)c2cc3ccccc3oc2=O)CC1 (stereo unspecified)
Polymyxin B 0.75 µg/mL
  bacterial growth OD600: 0.945

## CN(Cc1cnccn1)Cc1cn(C)nc1-c1ccc(C2CCCCC2)cc1
Polymyxin B 1 µg/mL
  bacterial growth OD600: 0.528

## OCC1CCN(c2nc3nonc3nc2N2CCCCCC2)CC1
Polymyxin B 0.75 µg/mL
  bacterial growth OD600: 0.908

## CCOC(=O)C1(Cc2ccccc2)CCN(Cc2cccn2-c2nccs2)CC1
Polymyxin B 1 µg/mL
  bacterial growth OD600: 0.893

## O=C(NCCc1ccncc1)C1CCCN(C2CCN(Cc3ccccc3)CC2)C1 (stereo unspecified)
Polymyxin B 1 µg/mL
  bacterial growth OD600: 0.85

## NC(=O)[C@@H]1CCCN1Cc1nc(N2CCOCC2)c2cc(Cl)ccc2n1
Polymyxin B 0.75 µg/mL
  bacterial growth OD600: 0.838

## Cc1ccc(CC2(CCC(=O)N3CCC(c4ccccc4F)C3)CCC(=O)N2)cc1 (stereo unspecified)
Polymyxin B 0.75 µg/mL
  bacterial growth OD600: 0.87

## CCN(CC)C(=O)C1CCCN(Cc2nc(-c3ccc(F)c(OC)c3)oc2C)C1 (stereo unspecified)
Polymyxin B 1 µg/mL
  bacterial growth OD600: 0.769

## CN(CCC(=O)NCc1nc(NCCCc2ccccc2)c2ccccc2n1)C1CCS(=O)(=O)C1 (stereo unspecified)
Polymyxin B 0.75 µg/mL
  bacterial growth OD600: 0.84
